Test results from PubChem BioAssay AID540256 (National Center for Advancing Translational Sciences (NCATS), 2011).
Several values for one entry are separate records, joined by “and”; a condition that tells them apart may be missing. Equal values may be shown once. Hit rate of the full screen: of about 300,000 compounds, about 3,700 (1.2%) were called active. Inconclusive results, whose numbers are uncertain, are shown with a selection of clear calls. Calls come from the whole dose curve; tested in HEK293 cells. Potencies beside an inconclusive call are fits to weak or partial responses and may not hold up.
Potency is the fitted concentration of half-maximal effect.

Test: qHTS for Inhibitors of binding or entry into cells for Lassa Virus; note: nearly all actives have a fitted effect of over 50% in size
Details: Lassa virus pseudotype entry inhibition, cell reporter; series mostly up to 37.9 µM
For COc1nc(NC2CCCCC2)nc(NC(C)(C)C)n1, the Potency was inconclusive: 6.31 µM [inhibitor, single point].
With CC(C)(C)c1cc(Cl)ccc1OCCOCCN1CCCC1 the Potency was inconclusive: 12.6 µM [inhibitor, partial curve, poor fit].
In the case of COc1ccc(NC(=O)CSc2nc(-c3cccs3)cc(C(F)(F)F)n2)cc1OC, the Potency is reported as inconclusive: 5.62 µM [inhibitor, full curve, poor fit].
With CCOC(=O)c1ccc(N/C=C/C(=O)c2ccc(OC)c(OC)c2)cc1 the Potency was “inactive”.
For CCC(=O)N1CCc2cc(Br)cc(S(=O)(=O)N3CCC(C(=O)Nc4ccc(OC)cc4)CC3)c21, the Potency was inconclusive: 11.2 µM [inhibitor, partial curve].
In the case of O=C(NNC(=O)C(c1ccccc1)c1ccccc1)c1ccccn1, the Potency is reported as inconclusive: 10 µM [inhibitor, partial curve, poor fit].
In the case of CC1(C(=O)Nc2nnc(SCc3ccccc3)s2)Cc2ccccc2C(=O)O1 (configuration not stated), the Potency is reported as “inactive”.
In the case of Cc1ccc(C(C)C)c(OCC(=O)NC(=S)Nc2ccccc2N2CCOCC2)c1, the Potency is reported as “inactive”.
In the case of c1ccc(-c2n[nH]c3ccccc23)cc1, the Potency is reported as inconclusive: 18.3 µM [inhibitor, single point].
With CC(C)CNC(=O)c1c(N)n(Cc2ccc3c(c2)OCO3)c2nc3ccccc3nc12 the Potency was “inactive”.
In the case of CC(C)(C)C(=O)O/N=C(\N)c1ccc(-c2csnn2)cc1, the Potency is reported as inconclusive: 3.55 µM [activator, single point].
In the case of Cc1sc(Nc2ccc([N+](=O)[O-])cc2)nc1-c1c(C)n(C)n(-c2ccccc2)c1=O, the Potency is reported as inconclusive: 16.4 µM [inhibitor, single point].
For Cc1[nH]nc2c1C(c1ccccn1)N(c1ccc(Br)cc1)C2=O (configuration not stated), the Potency was “inactive”.
For CC(=O)c1cc2c(cc1N/C(=N/S(=O)(=O)c1ccc(C)cc1)c1ccccc1)OCO2, the Potency was inconclusive: 20 µM [inhibitor, partial curve, poor fit].
In the case of COc1ccccc1NS(=O)(=O)c1cc(NC(=O)CNC(=O)c2cc(C)cc(C)c2)ccc1C, the Potency is reported as “inactive”.
With COc1ccc(N(C)S(=O)(=O)c2cccc(C(=O)N(C)Cc3ccc(C)o3)c2)cc1 the Potency was active: 5.01 µM.
In the case of Cc1ccnc(NC(=O)c2cccc(S(=O)(=O)N3CCN(c4ccccc4)CC3)c2)c1, the Potency is reported as active: 5.01 µM.
For COc1ccc(-c2cc(C(=O)Nc3nc4ccccc4s3)c3ccccc3n2)cc1OC, the Potency was inconclusive: 29.1 µM [inhibitor, single point].
In the case of CCCCOC(=O)c1ccc(NC(c2ccc(C)cc2)P(=O)(OC)OC)cc1 (configuration not stated), the Potency is reported as inconclusive: 0.58 µM [inhibitor, partial curve, poor fit].
With Cc1nc2ccccc2cc1C(=O)N/N=C/c1cccc([N+](=O)[O-])c1 the Potency was “inactive”.
For O=C(CN(Cc1ccco1)C(=O)c1ccc(F)cc1)Nc1ccccc1Br, the Potency was inconclusive: 8.91 µM [inhibitor, partial curve].
For CCOC(=O)N1CCN(S(=O)(=O)c2ccc(C(=O)NNc3nc4c(C)cc(C)cc4s3)cc2)CC1, the Potency was inconclusive: 29.1 µM [inhibitor, single point].
With CCCN(CCC)CCOc1cc(C)ccc1C(C)C the Potency was inconclusive: 29.1 µM [inhibitor, partial curve, poor fit].
For Cc1cccc2nc(-c3ccco3)c(Nc3ccc4c(c3)OCO4)n12, the Potency was “inactive and inconclusive: 11.2 µM [inhibitor, partial curve, poor fit]”.
For CC(C(=O)NC1CCCC1)N(C(=O)c1snc(C(N)=O)c1N)c1ccc2c(c1)OCCO2 (configuration not stated), the Potency was inconclusive: 11.6 µM [inhibitor, partial curve, poor fit].
In the case of CCSc1nnc(NC(=O)c2nc3nc(C)cc(C)n3n2)s1, the Potency is reported as inconclusive: 3.55 µM [activator, full curve, poor fit].
In the case of CCN(CC)c1cc(C)c2cc(NC(=O)c3cccc(OC)c3)ccc2n1, the Potency is reported as inconclusive: 25.1 µM [inhibitor, single point].
With Cc1ccccc1CN1CCN(S(=O)(=O)c2ccc(F)cc2)CC1 the Potency was inconclusive: 4.61 µM [inhibitor, full curve, poor fit].
For Cc1cc(C)c2nc(SC(C)C(=O)NCC(=O)Nc3ccc(F)c(F)c3F)cc(C)c2c1 (configuration not stated), the Potency was “inactive”.
With Cc1cc(N2CCN(c3ccccc3)CC2)n2cc(-c3ccccc3)nc2n1 the Potency was inconclusive: 31.6 µM [inhibitor, single point].
For Cc1ccc(C)c(NC(=O)CN2C(=O)CCc3ccccc32)c1, the Potency was inconclusive: 15.8 µM [inhibitor, single point].
In the case of Cc1ccc(S(=O)(=O)N(CC(O)Cn2c3ccccc3c3ccccc32)c2cccc(C(N)=O)c2)cc1 (configuration not stated), the Potency is reported as inconclusive: 12.6 µM [inhibitor, partial curve, poor fit].
In the case of COc1ccc(NCC(O)Cn2cnc3c2c(=O)n(C)c(=O)n3C)cc1 (configuration not stated), the Potency is reported as inconclusive: 17.8 µM [inhibitor, partial curve, poor fit].
For CCN(CC(=O)Nc1ccc(NC(C)=O)cc1)C(=O)/C=C/c1c(C)nn(-c2ccc(F)cc2)c1C, the Potency was inconclusive: 35.5 µM [inhibitor, single point].
With COCc1cc(=O)n2c([nH]c3ccccc32)c1C#N the Potency was “inactive”.
With CCN(CC)C(=O)Cn1cc(C(=O)C(=O)NCCCN2CCCCC2)c2ccccc21 the Potency was “inactive”.
In the case of CCc1ccc(NC(=O)c2ccc3c(O)c(S(=O)(=O)c4ccc(Cl)cc4)c(=O)[nH]c3c2)cc1, the Potency is reported as “inactive”.
With CCOC(=O)c1cc(C#N)c(C)nc1N(CC)CC the Potency was active: 5.62 µM.
In the case of CC(C)(O)C#Cc1ccc(CN2CCC(n3nccc3NC(=O)C3CC3)CC2)cc1, the Potency is reported as inconclusive: 15.8 µM [activator, partial curve, poor fit].
In the case of COc1ccc(OCC(=O)OC2CCN(C)CC2)cc1, the Potency is reported as “inactive”.
With COCCNC(=O)CSc1nnc(-c2ccccc2)c(-c2ccccc2)n1 the Potency was “inactive”.
For O=C(CCl)Nc1cccc(-c2cnc3ccccc3n2)c1, the Potency was inconclusive: 35.5 µM [inhibitor, single point].
In the case of Cc1ccc(C)c(OCCn2c(-c3ccc(Cl)cc3)nc3ccccc3c2=O)c1C, the Potency is reported as “inactive”.
With Cc1sc2ncnc(SCC(=O)Nc3cccc(S(N)(=O)=O)c3)c2c1C the Potency was inconclusive: 0.316 µM [inhibitor, full curve, poor fit].
For CC1(C)c2ccccc2-n2c1cc1oc(=O)cc(O)c1c2=O, the Potency was “inactive”.
With CCn1c2ccccc2c2nnc(SCC(=O)O)nc21 the Potency was inconclusive: 5.62 µM [activator, single point].
With CCn1c(COc2cccc(C)c2)nnc1SCC(=O)CC(=O)Nc1ccccc1OC the Potency was inconclusive: 0.146 µM [activator, partial curve, poor fit].
In the case of CC(C)c1nnc(NC(=O)C2CCN(C(=O)c3ccco3)CC2)s1, the Potency is reported as “inactive”.
For CCOc1ccc(CCNC(=O)Cn2nc(C)n3c(cc4occc43)c2=O)cc1OCC, the Potency was “inactive”.
In the case of COc1cccc(C2CC3C(=O)C=CC2N3Cc2ccccc2)c1 (configuration not stated), the Potency is reported as “inactive”.
With CC(/C=C(\NC(=O)c1ccccc1)C(=O)N=Nc1c(O)[nH]c2ccc(C)cc12)=C\c1ccccc1 the Potency was inconclusive: 10 µM [inhibitor, partial curve].
In the case of C=CCn1c(C)cc(C(=O)CSc2nnc(-c3cccc(S(=O)(=O)N(CC)CC)c3)o2)c1C, the Potency is reported as inconclusive: 16.4 µM [inhibitor, single point].
In the case of Cc1cccc(Cn2c(C(C)(C)C)cc3cccnc32)c1, the Potency is reported as inconclusive: 22.4 µM [inhibitor, single point].
For O=C1CC(NCc2cccs2)C(=O)N1c1ccc(Cl)cc1 (configuration not stated), the Potency was “inactive”.
For COc1ccc2ccccc2c1/C=N/NC(=O)c1nnn(-c2nonc2N)c1C(C)C, the Potency was inconclusive: 35.5 µM [inhibitor, single point].
With COc1ccc(N(C)S(=O)(=O)c2cccc(C(=O)NC3CCCCCC3)c2)cc1 the Potency was inconclusive: 20 µM [inhibitor, single point].
For CC(=O)c1c(CSc2ccccc2)oc2ccc(O)c(CN(C)C)c12, the Potency was inconclusive: 20 µM [inhibitor, single point].
With CCOc1cccc2sc(N(CCN(C)C)C(=O)/C=C/c3cccs3)nc12 the Potency was inconclusive: 35.5 µM [inhibitor, single point].
In the case of COc1cccc(-c2cc(C(=O)Nc3cc(Cl)ccc3O)on2)c1, the Potency is reported as inconclusive: 10 µM [inhibitor, partial curve].
In the case of N[C@@H](Cn1oc(=O)[nH]c1=O)C(=O)O, the Potency is reported as inconclusive: 32.6 µM [activator, single point].
In the case of O=C(CSc1nc(-c2ccco2)cc(C(F)(F)F)n1)NC1CCCCCCC1, the Potency is reported as inconclusive: 35.5 µM [inhibitor, single point].
For CCOC(=O)c1c(C)[nH]c(C)c1C(=O)CSc1nc2ccccc2c(=O)n1-c1ccc(F)cc1, the Potency was inconclusive: 10 µM [inhibitor, partial curve, poor fit].
In the case of COC(=O)c1c(C)oc2ccc(N(C(=O)c3ccncc3)S(=O)(=O)c3ccccc3)cc12, the Potency is reported as inconclusive: 35.5 µM [inhibitor, single point].
With c1ccc(CSCc2nc3ccccc3[nH]2)cc1 the Potency was inconclusive: 1.46 µM [activator, full curve].
For Cc1ccc(CCNC(=O)CCCn2nc(C)c3c(C)n(-c4ccccc4)nc3c2=O)cc1, the Potency was “inactive”.
For Cc1ccc(-c2cc(-c3ccccc3)c(C#N)c(Br)n2)cc1, the Potency was “inactive”.
For CC(=O)Nc1ccc(S(=O)(=O)N2CCC(n3c(C(F)(F)F)nc4cccnc43)CC2)cc1, the Potency was “inactive”.
